Experimental data from PubChem BioAssay AID1671190 (National Center for Advancing Translational Sciences (NCATS), 2021).
About 6,100 (1.1%) of roughly 580,000 compounds were called active. This list was built around the results that the source calls inconclusive (neither active nor inactive); the mix of calls is not that of the screen. Calls follow the shape of the dose curve; as a rule, active = well fitted inhibition curve with a large enough effect; inconclusive = small, poorly fitted or top-dose-only effect, or another doubt; inactive = no such curve, though single readings can be large or run the other way. Where the call is inconclusive, the potency comes from a doubtful curve fit.

Protein sequences, listed by entry. Tags and fused reporters are not part of them. Lines headed by an entry give the natural chain unless they say otherwise; changes in a name come on top.
UniProt P18054: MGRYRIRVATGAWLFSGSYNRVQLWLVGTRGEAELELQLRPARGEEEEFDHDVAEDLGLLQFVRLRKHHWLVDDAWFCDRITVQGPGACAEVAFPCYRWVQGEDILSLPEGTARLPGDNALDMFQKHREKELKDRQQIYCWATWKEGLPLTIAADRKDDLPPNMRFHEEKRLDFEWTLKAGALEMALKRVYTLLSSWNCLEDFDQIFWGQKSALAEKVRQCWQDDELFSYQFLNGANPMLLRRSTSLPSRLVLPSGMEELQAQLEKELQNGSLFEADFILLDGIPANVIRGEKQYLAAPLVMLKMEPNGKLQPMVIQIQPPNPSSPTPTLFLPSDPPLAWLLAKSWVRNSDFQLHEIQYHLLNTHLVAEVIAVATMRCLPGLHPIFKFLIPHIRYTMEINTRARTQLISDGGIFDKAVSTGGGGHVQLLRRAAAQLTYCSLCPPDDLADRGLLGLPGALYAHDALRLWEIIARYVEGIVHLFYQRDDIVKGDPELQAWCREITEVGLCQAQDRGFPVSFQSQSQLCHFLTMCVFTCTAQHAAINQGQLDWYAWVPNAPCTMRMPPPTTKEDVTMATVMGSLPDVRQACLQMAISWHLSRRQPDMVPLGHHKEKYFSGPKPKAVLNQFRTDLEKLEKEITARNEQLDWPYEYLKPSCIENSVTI

What follows are molecules tested against Polyunsaturated fatty acid lipoxygenase ALOX12 (Homo sapiens) (UniProt P18054) (assay: Primary qHTS assay for inhibitors of human arachidonate 12S-lipoxygenase (ALOX12): Round 2). Conditions: purified 12hLO, xylenol orange hydroperoxide absorbance; activity change, negative = inhibition: at 108 µM (top of the series) unless noted.
Outline: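 Purified human 12hLO at 150 nM in 25 mM Hepes, 0.01% Triton X-100, pH 7.0, preincubated 15 min at room temperature with compound. Reaction started with 40 uM arachidonic acid, 30 min at room temperature. Hydroperoxide measured by Fe-xylenol orange, 573/405 nm absorbance ratio.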
% is scaled to controls: 0 for no effect and ±100 for the full control effect; potency is read from the fitted curve at half-maximal effect.

Row | SMILES | Potency | activity change, negative = inhibition
1 | Cc1ccc2c(c1)C/C(=C\c1cccnc1)C2=O | inconclusive: 39.8 µM [inhibitor, partial curve, poor fit] | 
2 | Cc1ccc(C(=O)N(Cc2nnc(-c3ccccc3Cl)o2)C2CC2)o1 | inconclusive: 35.5 µM [inhibitor, single point] | 
3 | O=C(O)c1cc(S(=O)(=O)Nc2ccccc2C(=O)NC2CC2)ccc1F | inactive | 
4 | CN(C)C(=O)c1ccc(N2CC3CC(C2)[C@H]2CCCC(=O)N2C3)nc1 (stereo partly specified) | inactive | 
5 | O=C(O)CCCCCCCCc1cn(Cc2ccc(C(=O)c3ccccc3)cc2)nn1 | inactive | 
6 | Cc1ccc(OCC(=O)Nc2nonc2-c2ccc(Br)cc2)cc1C |  | inconclusive: -34.8% [inhibitor]
7 | CNC(=O)[C@@H]1C[C@@H](n2cc(CN(C)C(=O)c3cccc(F)c3F)nn2)CN1 | inconclusive: 10 µM [inhibitor, full curve] | 
8 | CCOC(=O)Cc1c(C)nc2cc(-c3ccc(C(C)(C)C)cc3)nn2c1C | inactive | 
9 | COc1ccc(CNC(=O)Cn2c(N3CCCCC3)nc(C)c(C)c2=O)cc1 | inactive | 
10 | O=C(CN1C(=O)/C(=C\C=C\c2ccccc2)SC1=S)Nc1ccc(F)cc1 | inactive | 
11 | Cc1cccc(CN2CCC3(CC2)Cc2ccccc2CNC3=O)c1 | inconclusive: 10 µM [inhibitor, full curve, poor fit] | 
12 | N/C(=N\C(=S)Nc1ccccc1)c1ccccc1 | inconclusive: 14.1 µM [inhibitor, partial curve, poor fit] | 
13 | O=C(Nc1c(NCc2ccccc2)c2ccccc2oc1=O)c1ccccc1 | inconclusive: 31.6 µM [inhibitor, single point] | 
14 | CCc1ccc(NC(=O)C2CCCN2S(=O)(=O)c2ccc3nc(-c4ccccc4)[nH]c3c2)cc1 (stereo unspecified) | inconclusive: 112 µM [inhibitor, partial curve, poor fit] | 
15 | CC(=O)N1CSCC1C(=O)O (stereo unspecified) | inconclusive: 35.5 µM [inhibitor, single point] | 
16 | CNC(=O)C1CCN(C(=O)c2ccc(C)cc2)CC1 | inactive | 
17 | CC(C)OC(=O)c1cccc(C(=O)OC(C)C)n1 | inconclusive: 6.31 µM [inhibitor, full curve, poor fit] | 
18 | COc1ccc(C(=O)N2CC[C@H]3COC(=O)N3c3ccccc3C2)cc1 | inactive | 
19 | Cc1ccc(C(C)C)c(OCCNCCc2ccccc2)c1 | active: 7.94 µM | 
20 | COc1cccc(C(=O)N2CCC(c3n[nH]c(=O)n3Cc3ccc(C)cc3)CC2)c1 | inconclusive: 31.6 µM [inhibitor, partial curve, poor fit] | 
21 | CC(C)(C)c1nnc(Nc2cccc(Cl)c2)[nH]c1=O | inactive | 
22 | O=C(Nc1cc(=O)[nH]c2nc(C(F)(F)F)nn12)c1ccc(Cl)cc1 | inconclusive: 63.1 µM [inhibitor, partial curve, poor fit] | 
23 | NCc1cccc(OC(F)F)c1 | inactive | 
24 | CN(C)c1ccc(C2C3CCCc4ccccc4C3=NN2C)cc1 (stereo unspecified) | inconclusive: 0.447 µM [inhibitor, single point] | 

Row | SMILES | Potency | activity change, negative = inhibition
25 | CCOC(=O)C1=C(C)N(c2ccc3c(c2)OCO3)C(=O)NC1c1cccc(F)c1 (stereo unspecified) | inactive | 
26 | O=C(NC1CCCCC1)C(c1cc2ccccc2o1)n1c(=O)c(-c2ccco2)nc2ccccc21 (stereo unspecified) | inconclusive: 44.7 µM [inhibitor, partial curve, poor fit] | 
27 | CCOc1cc(CNCCO)cc(Br)c1OCc1ccc(Cl)cc1 | inconclusive: 112 µM [inhibitor, single point] | 
28 | Cn1c(=O)c(=O)n(C)c2cc(N3CCCCC3)c(NS(=O)(=O)c3ccc(C(C)(C)C)cc3)cc21 | inconclusive: 56.2 µM [inhibitor, partial curve, poor fit] | 
29 | O=C(Nc1ccc(Cl)cc1Cl)c1ccc2cc[nH]c2n1 | inconclusive: 89.1 µM [inhibitor, single point] | 
30 | COc1ccc([C@H]2C[C@@H](O)[C@@H](O)[C@@H]2NC(=O)C2CCCC2)cc1 | inactive | 
31 | Cn1c(=O)c2c(nc(NC3CCCCC3)n2CC(=O)C23CC4CC(CC(C4)C2)C3)n(C)c1=O | inconclusive: 89.1 µM [inhibitor, single point] | 
32 | CC(C)N1CCC(NC(=O)c2ccc3ccccc3c2)CC1 | inactive | 
33 | O=C(Cc1csc(-c2cccs2)n1)Oc1ccc(Cl)c2ccccc12 | inactive | 
34 | CCOC(=O)C1=CN(Cc2ccco2)S(=O)(=O)N(CC)C1c1ccc(C(F)(F)F)cc1 (stereo unspecified) | inconclusive: 44.7 µM [inhibitor, partial curve, poor fit] | 
35 | COC(=O)[C@@H]1Cc2ncn(C)c2CN1S(=O)(=O)c1ccc(C)cc1 | inconclusive: 11.2 µM [inhibitor, full curve] | 
36 | CC(C)(C)NC(=O)C(=O)NN=C1CCCCCC1 | inactive | 
37 | CC(=O)c1ccc(NC(=O)CSc2nnc(-c3ccco3)c(-c3ccco3)n2)cc1 | inconclusive: 15.8 µM [inhibitor, full curve] | 
38 | COc1ccc2c(C)c(CC(=O)NCc3ccc(F)cc3)c(=O)oc2c1OC | inactive | 
39 | COC(=O)c1c(C)oc2c1cc(NS(=O)(=O)c1ccc(C(=O)O)cc1)c1ccccc12 | inactive | 
40 | CCCC1Cc2nc(Cl)c(C#N)cc2CO1 (stereo unspecified) | inconclusive: 89.1 µM [inhibitor, partial curve, poor fit] | 
41 | Cc1nc(C)c(C(=O)NCC2Cn3cccc3C(=O)N2Cc2ccccc2)s1 (stereo unspecified) | inactive | 
42 | CCOc1ccc(NC(=S)NC(=O)c2cnn(CC)c2)c([N+](=O)[O-])c1 | inconclusive: 3.98 µM [inhibitor, full curve, poor fit] | 
43 | COCCOCC1(CNC(=O)c2cc(C)nn2C)C[C@@H](O)[C@@H](O)C1 (stereo partly specified) | inconclusive: 28.2 µM [inhibitor, single point] | 
44 | COc1ccc(-c2c(C#N)c(N)n(N)c(=O)c2C#N)cc1Cl | inactive | 
45 | Cc1cc2nc3c(=O)[nH]c(=O)nc-3n(C[C@H](O)[C@H](O)[C@H](O)CO)c2cc1C | inconclusive: 8.82 µM [inhibitor, single point] | 
46 | Cc1ccccc1-c1nc(NCC2CC2)nc2ccsc12 | inconclusive: 50.1 µM [inhibitor, single point] | 
47 | C=CCNCc1ccc(Br)cc1 | inconclusive: 100 µM [inhibitor, partial curve, poor fit] | 
48 | CC(C)C(=O)Nc1ccc(NC(=O)c2nccnc2N)cc1 | inconclusive: 17.8 µM [inhibitor, full curve] | 

Some of the entries above, set out differently:
COc1ccc(C(=O)N2CC[C@H]3COC(=O)N3c3ccccc3C2)cc1
  Potency: inactive
COc1cccc(C(=O)N2CCC(c3n[nH]c(=O)n3Cc3ccc(C)cc3)CC2)c1
  Potency: inconclusive: 31.6 µM [inhibitor, partial curve, poor fit]
O=C(NC1CCCCC1)C(c1cc2ccccc2o1)n1c(=O)c(-c2ccco2)nc2ccccc21 (stereo unspecified)
  Potency: inconclusive: 44.7 µM [inhibitor, partial curve, poor fit]
CCOc1cc(CNCCO)cc(Br)c1OCc1ccc(Cl)cc1
  Potency: inconclusive: 112 µM [inhibitor, single point]

Retrieved by structure from the list above (two):
Row | SMILES | Potency | activity change, negative = inhibition
29 | O=C(Nc1ccc(Cl)cc1Cl)c1ccc2cc[nH]c2n1 | inconclusive: 89.1 µM [inhibitor, single point] | 
26 | O=C(NC1CCCCC1)C(c1cc2ccccc2o1)n1c(=O)c(-c2ccco2)nc2ccccc21 (stereo unspecified) | inconclusive: 44.7 µM [inhibitor, partial curve, poor fit] | 

(next part)

Row | SMILES | Potency | activity change, negative = inhibition
49 | CCN(CC)c1ccc(C2NC(=O)c3ccccc3N2)cc1 (stereo unspecified) | inactive | 
50 | CC(O)(C#CCN1CCCCCC1)c1ccccc1 (stereo unspecified) | inconclusive: 100 µM [inhibitor, partial curve, poor fit] | 
51 | Cc1ccc(Cc2c(-c3ccccc3)nc3ccc(Br)cn23)cc1 | active: 6.31 µM | 
52 | CC(=O)N1CCNc2cc(NCc3ccc(F)cc3)ncc2C1 | inconclusive: 39.8 µM [inhibitor, partial curve, poor fit] | 
53 | Cc1csc(NC(=O)c2ccc(Oc3ccc(Br)cc3)nc2)n1 | inconclusive: 25.1 µM [inhibitor, partial curve, poor fit] | 
54 | CCc1cc2c(CN3CCN(c4ccccc4O)CC3)cc(=O)oc2cc1O | inconclusive: 50.1 µM [inhibitor, partial curve, poor fit] | 
55 | S=c1[nH]nc(CNc2cccc(Cl)c2)o1 | inactive | 
56 | CCC(=O)Nc1nc2ccccc2n1CCN1CCOCC1 | inconclusive: 0.794 µM [inhibitor, partial curve, poor fit] | 
57 | CC[N+](CC)(CC)CC(=O)Nc1ccc(SC(F)F)cc1 | inconclusive: 44.7 µM [inhibitor, partial curve, poor fit] | 
58 | CN(C)C(=O)c1ccc(CNC(=O)C2CCCC2)cc1 | inactive | 
59 | C=CCNC(=O)N1CC[C@@H](CC(=O)O)[C@@H](CC2=NCCc3cc(OC)ccc32)C1 | inconclusive: 22.4 µM [inhibitor, full curve, poor fit] | 
60 | Cc1cc(F)ccc1NC(=O)C(C)(C)c1ccccc1 | inactive | 
61 | Cc1ccccc1OCC(=O)NCC(C)(C)N1CCOCC1 | inactive | 
62 | Clc1ccccc1-c1nnc2sc(Cn3cccn3)nn12 | inconclusive: 25.1 µM [inhibitor, single point] | 
63 | COC(=O)c1sc(N2C(=O)c3oc4ccc(C)cc4c(=O)c3C2c2ccc(O)c(OC)c2)nc1C (stereo unspecified) | inconclusive: 126 µM [inhibitor, single point] | 
64 | C=CCn1c(COc2ccc(C(C)(C)C)cc2)n[nH]c1=S | inconclusive: 44.7 µM [inhibitor, partial curve, poor fit] | 
65 | CCOc1cc(/C=C2\C(=N)N3N=C(S(C)(=O)=O)SC3=NC2=O)ccc1OCCOc1cccc(OC)c1 | inconclusive: 44.7 µM [inhibitor, partial curve, poor fit] | 
66 | O=C(COC(=O)C1CCN(c2ccc(C(F)(F)F)cn2)CC1)NCc1ccc(Cl)cc1Cl | inconclusive: 35.5 µM [inhibitor, partial curve, poor fit] | 
67 | Cc1cc(SCc2cc(=O)[nH]c3ccccc23)nc2ccccc12 | inactive | 
68 | CC1(c2ccccc2Cl)NC(=O)N(CC(=O)N2CCc3ccccc3C2)C1=O (stereo unspecified) | inconclusive: 89.1 µM [inhibitor, single point] | 
69 | FC(F)(F)c1cc(-c2ccco2)nc(NCc2cccnc2)n1 | inconclusive: 39.8 µM [inhibitor, partial curve, poor fit] | 
70 | COc1cccc(CN2CCN3C(C(=O)Nc4ccccc4)=COC3=NC2=O)c1 | inactive | 
71 | Cc1ccc(CNC2C3CC4CC(C3)CC2C4)s1 (stereo unspecified) | inconclusive: 100 µM [inhibitor, partial curve, poor fit] | 
